For experiment [1], the target named is Programmed Death 1 (PD-1) (UniProt Q15116). The experiment can be described thus: FACS competition binding on PD-1-expressing 300.19 cells: constant concentration of Alexa 488-labelled murine mAb BAP049, serial dilutions of the test mAb; x axis = conc. test mAb / conc. labelled murine mAb.
Experiment [2] has the same target. Kind of experiment: FACS binding analysis, median fluorescence units at 200, 100, 50, 25 and 12.5 ng/ml (cells not named in the legend). (Flow cytometry measures light scatter and fluorescence of single cells or particles in a stream.)
Experiment [3] has the same target. Kind of experiment: FACS competition binding: fluorescently labelled murine mAb BAP049 (Mu mAb) against increasing unlabelled mAb; MFI of the labelled mAb is read.
The target is the same in experiment [4]. The experiment can be described thus: FACS ligand blocking: binding of PD-L1-Ig to PD-1 at increasing mAb concentration (legend paragraph 212 names 'PD-L1-Ig and PD-L2-Ig' for FIG. 8A).
Experiment [5] has the same target. Kind of experiment: FACS ligand blocking: binding of PD-L2-Ig to PD-1 at increasing mAb concentration.

By UniProt entry, the sequences of proteins in these tests, tags left out. Residues count along the entry.
UniProt Q15116, residues 25-167: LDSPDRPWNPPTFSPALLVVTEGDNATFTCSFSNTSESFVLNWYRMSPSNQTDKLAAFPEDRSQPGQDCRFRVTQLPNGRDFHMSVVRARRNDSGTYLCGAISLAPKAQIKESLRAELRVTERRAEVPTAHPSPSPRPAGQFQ

No constants are given. Whether binding was seen depends on the method and setting. Some entries that bind do so weakly or less than the wild type.

B1: BAP049-hum03 (antibody, human IgG4 S228P, kappa, V domains shown)
VH: EVQLVQSGAEVKKPGESLRISCKGSGYTFTTYWMHWIRQSPSRGLEWLGNIYPGTGGSNFDEKFKNRFTISRDNSKNTLYLQMNSLRAEDTAVYYCTRWTTGTGAYWGQGTTVTVSS
VL: DIQMTQSPSSLSASVGDRVTITCKSSQSLLDSGNQKNFLTWYQQKPGQAPRLLIYWASTRESGIPPRFSGSGYGTDFTLTINNIESEDAAYYFCQNDYSYPYTFGQGTKVEIKR
As for B1, the binding result in experiment [1] and in experiment [2] was “binds” each time.

B2: BAP049-hum16 (antibody, human IgG4 S228P, kappa, V domains shown)
VH: EVQLVQSGAEVKKPGESLRISCKGSGYTFTTYWMHWVRQAPGQGLEWMGNIYPGTGGSNFDEKFKNRFTISRDNSKNTLYLQMNSLRAEDTAVYYCTRWTTGTGAYWGQGTTVTVSS
VL: EIVLTQSPDFQSVTPKEKVTITCKSSQSLLDSGNQKNFLTWYQQKPGQAPRLLIYWASTRESGVPSRFSGSGSGTDFTFTISSLEAEDAATYYCQNDYSYPYTFGQGTKVEIKR
For the molecule B2, the binding entry in experiment [1] and in experiment [2] was “binds” each time.

B3: BAP049-hum04 (antibody, human IgG4 S228P, kappa, V domains shown)
VH: EVQLVQSGAEVKKPGESLRISCKGSGYTFTTYWMHWIRQSPSRGLEWLGNIYPGTGGSNFDEKFKNRFTISRDNSKNTLYLQMNSLRAEDTAVYYCTRWTTGTGAYWGQGTTVTVSS
VL: EIVLTQSPATLSLSPGERATLSCKSSQSLLDSGNQKNFLTWYQQKPGKAPKLLIYWASTRESGVPSRFSGSGSGTDFTFTISSLQPEDIATYYCQNDYSYPYTFGQGTKVEIKR
For the molecule B3, the binding result in experiment [1] and in experiment [2] was “binds” in each case.

B4: Mu mAb (antibody, V domains shown)
VH: QVQLQQSGSELVRPGASVKLSCKASGYTFTTYWMHWVRQRPGQGLEWIGNIYPGTGGSNFDEKFKNRTSLTVDTSSTTAYMHLASLTSEDSAVYYCTRWTTGTGAYWGQGTLVTVSA
VL: DIVMTQSPSSLTVTAGEKVTMSCKSSQSLLDSGNQKNFLTWYQQKPGQPPKLLIFWASTRESGVPDRFTGSGSVTDFTLTISSVQAEDLAVYYCQNDYSYPCTFGGGTKLEIK
Turning to B4, the binding result in experiment [3], in experiment [4], in experiment [5] and in experiment [1] was “binds” each time.

B5: Chi mAb (Cys) (antibody, human IgG4 S228P, kappa, V domains shown)
VH: QVQLQQSGSELVRPGASVKLSCKASGYTFTTYWMHWVRQRPGQGLEWIGNIYPGTGGSNFDEKFKNRTSLTVDTSSTTAYMHLASLTSEDSAVYYCTRWTTGTGAYWGQGTTVTVSS
VL: DIVMTQSPSSLTVTAGEKVTMSCKSSQSLLDSGNQKNFLTWYQQKPGQPPKLLIFWASTRESGVPDRFTGSGSVTDFTLTISSVQAEDLAVYYCQNDYSYPCTFGQGTKVEIKR
For B5, the binding entry in experiment [3] is given as “binds”.

B6: Chi mAb (Tyr) (antibody, human IgG4 S228P, kappa, V domains shown)
VH: QVQLQQSGSELVRPGASVKLSCKASGYTFTTYWMHWVRQRPGQGLEWIGNIYPGTGGSNFDEKFKNRTSLTVDTSSTTAYMHLASLTSEDSAVYYCTRWTTGTGAYWGQGTTVTVSS
VL: DIVMTQSPSSLTVTAGEKVTMSCKSSQSLLDSGNQKNFLTWYQQKPGQPPKLLIFWASTRESGVPDRFTGSGSVTDFTLTISSVQAEDLAVYYCQNDYSYPYTFGQGTKVEIKR
With B6, the binding result in experiment [3], in experiment [4], in experiment [5] and in experiment [1] was “binds” each time.

Values taken from patent US20180371093A1.
